Measurements from “University of Dundee, Small-Polar-MMV Screening Library” (2021), ChEMBL document CHEMBL3988442.

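Viability assay of Plasmodium falciparum sporozoites; the read-out is not stated. The concentration is filed as 10 mM, unlikely as a test dose, so the dose is not known. Higher reads as lower viability (inferred: compounds with an IC50 in retests scored well above the rest). Strong results were mostly tested again. About 34,000 compounds were tested under these conditions; 0.84% (about 280) showed 50% or more at least once.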

The filed quantity is “Percent Effect” (%).
The record does not define 0% and 100%; most values in the screen are far below 50% and negative numbers occur (in some assays of this library far below -100).
Compounds were drawn at random from those tested, without regard to their results.
Two or more numbers in one place are separate tests of the same structure; such repeats can differ widely.

* CC(NC(=O)c1ccc2c(c1)OCC(=O)N2)c1ccccc1F (stereo not drawn) | 9.372%
* CCOc1ccc(Cl)cc1CCNC(=O)Cn1nc(C)ccc1=O | -8.218%
* CC(C)N1CCCN(c2nc(-c3cccnc3)nc3c2cnn3C)CC1 | -12.5%
* CSc1nccc(N2CCN(C)C3(CCNC(=O)CC3)C2)n1 (stereo not drawn) | -3.648%
* CC(=O)Nc1nc(CN2CCn3c(nnc3C3CC3)C2)cs1 | -5.263%
* COc1cccc(CCNC(=O)CN2CCCC2c2noc(C)n2)c1 (stereo not drawn) | -5.096%
* COCC(=O)N1CCN(C(C)c2ncc(-c3ccccc3)o2)CC1 (stereo not drawn) | 2.507%
* Cc1ccc(C(=O)N2CCCN(Cc3cccs3)CC2)n1C | 2.873%
* CCN(Cc1ccc2c(c1)OCCO2)C(=O)NCc1csc(C)n1 | -1.338%
* Cn1nc(C2CCN(C(=O)c3cnccn3)C2)cc1CCO (stereo not drawn) | 2.027%
* CCc1cc(N2CCCNCC2)n2nc(C)c(C)c2n1 | 0%
* [H][C@@]12CS(=O)(=O)C[C@]1([H])N(C(=O)Cc1cccnc1)CCN2CCC | 6.505%
* c1ccc2oc(CCCN3CCc4cncnc4C3)nc2c1 | 3.346%
* CS(=O)(=O)c1cc(Cl)cnc1C1CCN(C(=O)C2CCCO2)CC1 (stereo not drawn) | 1.619%
* CC(=O)Nc1cccc(OCCNC(=O)N(C)Cc2ccccc2)c1 | 0.4902%
* COCCN(CC1CCCN(C2Cc3ccccc3C2)C1)C(=O)COC (stereo not drawn) | -7.182%
* CC(=O)N(Cc1ncc(C)o1)C1CCN(Cc2ccccc2C#N)C1 (stereo not drawn) | 1.553%
* NCc1cn(CC2CCCN(C(=O)NCCc3ccc(F)cc3)C2)nn1 (stereo not drawn) | -25.53% and -19.17%
* CN(Cc1noc(C2CC2)n1)C1CCCN(c2cccnn2)C1 (stereo not drawn) | 5.27%
* CC(=O)N1CCC2(C1)C(=O)N(CC1CC1)c1ccccc12 (stereo not drawn) | -3.065%
* Cc1cnn(C2CCCN(C(=O)c3ccc(OCC4CC4)nc3)C2)c1 (stereo not drawn) | 4.526%
* Cn1cccc1CN1CCC2(CCCN(C(=O)c3cnccn3)C2)C1.O=C(O)C(F)(F)F (stereo not drawn) | 3.687%
* CCCOCC(=O)NC1CCc2nc(C)cn2C1 (stereo not drawn) | -18.15%
* CC(C)c1cc(COCCCC(=O)O)no1 | -8.325%
* Cc1noc2ncc(C(=O)NCC3CCS(=O)(=O)C3)cc12 (stereo not drawn) | -1.437%
* CN1CCCC1c1ccnc(C(=O)N(C)C2CCCCC2)c1 (stereo not drawn) | 7.615%
* O=C(CNC(=O)C1CC1)NCCOc1cccc(Cl)c1Cl | 14.6%
* CC(=O)NCC(=O)N1CCOCC(Cc2ccc3c(ccn3C)c2)C1 (stereo not drawn) | -12.98%
* NS(=O)(=O)c1ccc(C(=O)N2CCCC2c2ccccc2)o1 (stereo not drawn) | 4.316%
* O=C(O)C(F)(F)F.O=C(O)C(F)(F)F.c1cncc(OCC2CN(Cc3nccs3)Cc3nccn3C2)c1 (stereo not drawn) | -2.024%
* CCCc1cc(C(=O)N[C@@H]2CCC[C@@H](N3CCCC3)[C@@H]2O)no1 | 0.5812%
* N#Cc1cccc(S(=O)(=O)NC(=O)c2csc(-c3ccco3)n2)c1 | 0.6519%
* CC(=O)N1CCN(c2cc(C3CCNCC3)ccn2)CC1.Cl.Cl | 13.82%
* O=C(NCC(=O)N1CCCC1Cc1cccc(F)c1)c1ccccn1 (stereo not drawn) | -1.173%
* O=C(O)C(F)(F)F.[H][C@@]12OCCN(C(C)=O)[C@@]1([H])CC[C@H]2OCCCn1cccn1 | -1.012%
* COC(=O)C1CCN(C(=O)c2ccc(C)c(NS(C)(=O)=O)c2)CC1 | -7.796%
* CC(NC(=O)NCC(C)(C)O)c1ccc(-c2ccncc2)cc1 (stereo not drawn) | -6.037%
* Fc1cccc(N2CCCC3(CN(Cc4cccnc4)CCO3)C2)c1.O=C(O)C(F)(F)F.O=C(O)C(F)(F)F.O=C(O)C(F)(F)F (stereo not drawn) | -4.774%
* Cc1nccc(C2(C)CCCNC2)n1.Cl.Cl (stereo not drawn) | 5.646%
* O=C(N1CCC(Nc2cccnn2)CC1)C1(c2ccc(F)cc2)CC1 | -12.8%

Some entries from above, unchanged:

Compound	percent effect
CC(=O)Nc1cccc(OCCNC(=O)N(C)Cc2ccccc2)c1	0.4902%
O=C(CNC(=O)C1CC1)NCCOc1cccc(Cl)c1Cl	14.6%
CCc1cc(N2CCCNCC2)n2nc(C)c(C)c2n1	0%
CC(=O)N(Cc1ncc(C)o1)C1CCN(Cc2ccccc2C#N)C1 (stereo not drawn)	1.553%